{
  "source": "PubChem BioAssay AID493014",
  "about": "(National Center for Advancing Translational Sciences (NCATS), 2011)",
  "note": "“And” between values parts separate entries of the source, which are not always exact repeats. Identical values can stand only once. About 170 (0.05%) of roughly 340,000 compounds were called active. Inconclusive results, whose numbers are uncertain, are shown with a selection of clear calls. Calls follow the shape of the dose curve; as a rule, active = well fitted inhibition curve with a large enough effect in the signal ratio, with a control signal flat (not every such curve was filed as active); inconclusive = small, poorly fitted or top-dose-only effect, or effect the other way, or a change in a side signal; inactive = flat fitted curve, though single readings scatter; the % refers to the signal ratio. Where the call is inconclusive, the potency comes from a doubtful curve fit. Potency is read from the fitted curve at half-maximal effect.",
  "data": [
    {"experiment": "qHTS Assay to Find Inhibitors of Chronic Active B-Cell Receptor Signaling;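 as to activity change, negative = inhibition: plate controls were basal doxycycline-induced cells for no effect and cells given 10 µM MG132 for full effect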", "details": "ABC-DLBCL IkBa-CBG/CBR reporter, luminescence ratio (green luciferase fused to IkBa over red control in TMD8 lymphoma cells), 4 h; activity change, negative = inhibition: at 46.1 µM (top of the series) unless noted", "summary_of_the_method": "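TMD8 ABC-DLBCL cells carrying doxycycline-inducible green luciferase fused to IkappaBalpha plus unfused red luciferase were exposed to compounds (up to 46 uM) for 4 hrs at 37C. Activity came from the overlap-corrected green/red luminescence ratio.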", "values": [
      {"smiles": "CCCC(=O)NC(c1ccco1)c1cc([N+](=O)[O-])c2cccnc2c1O", "note": "(configuration not stated)", "activity change, negative = inhibition": "inactive: 29.3%"},
      {"smiles": "Nc1nnc(CCOc2ccccc2Cl)s1", "activity change, negative = inhibition": "inactive: -17.3%"},
      {"smiles": "COc1cc(C(=O)c2cocc2C(=O)c2ccc3c(c2)OCO3)cc(OC)c1OC", "activity change, negative = inhibition": "inconclusive: -26%"},
      {"smiles": "O=C(CSC1=Nc2ccccc2C2=NC(Cc3c[nH]c4ccccc34)C(=O)N12)NC1CCCCC1", "note": "(configuration not stated)", "activity change, negative = inhibition": "inconclusive: 19.4%"},
      {"smiles": "N#C/C(=C/c1ccc(-c2ccccc2)o1)c1nc(-c2cccs2)cs1", "activity change, negative = inhibition": "inactive: 5.48%"},
      {"smiles": "C=C1CC(C(=O)N/N=C/c2ccc(O)cc2)C1", "Potency": "inconclusive: 18.4 µM [falling, single point]"},
      {"smiles": "CCc1noc(C)c1C(=O)Nc1nc(-c2ccc(OC)c(OC)c2)cs1", "activity change, negative = inhibition": "inconclusive: -12%"},
      {"smiles": "Cc1cccc(N2CC(O)(c3cccs3)[N+]3=C2CCCC3)c1C", "note": "(configuration not stated)", "activity change, negative = inhibition": "inactive: -0.507%"},
      {"smiles": "Oc1cccc(NC(=S)Nc2ccc(SC(F)F)cc2)c1", "activity change, negative = inhibition": "inactive: 0.146%"},
      {"smiles": "COc1ccc(S(=O)(=O)CC(=O)c2cc3cccc(C)c3oc2=O)cc1", "activity change, negative = inhibition": "inconclusive: -5.2%"},
      {"smiles": "CN(C)C=Nc1ccc2nn(-c3ccccc3)nc2c1", "activity change, negative = inhibition": "inconclusive: -16.3%"},
      {"smiles": "O=C(c1ccccc1-c1nc(-c2ccccc2)no1)N1CCCC1", "activity change, negative = inhibition": "inconclusive: -2.65%"},
      {"smiles": "COc1ccc(S(=O)(=O)N2CCN(c3ccc(C)cc3C)CC2)cc1OC", "activity change, negative = inhibition": "inconclusive: -3.18%"},
      {"smiles": "Cc1ccc2nc(NC(=O)COC(=O)c3ccccn3)sc2c1", "Potency": "inconclusive: 8.91 µM [falling, partial curve]"},
      {"smiles": "CCN(CC(=O)Nc1ccccc1SC)Cc1nc2ccccc2c(=O)[nH]1", "Potency": "inconclusive: 25.1 µM [cytotoxic, partial curve]"},
      {"smiles": "COc1ccc(S(=O)(=O)NCC2CCCN(C(=O)CN3CCCCC3)C2)cc1", "note": "(configuration not stated)", "activity change, negative = inhibition": "inconclusive: 14.3%"},
      {"smiles": "COc1ccc(-c2ccc(-c3nnn(CC(=O)N4CCOCC4)n3)cc2)cc1", "activity change, negative = inhibition": "inconclusive: -12%"},
      {"smiles": "CC(=O)Oc1ccc(Cn2cnc3cc4ccccc4cc32)cc1", "Potency": "inconclusive: 4.11 µM [falling, partial curve]"},
      {"smiles": "Nc1nc(SCC(=O)Nc2ccccc2)[nH]c(=O)c1-c1ccccc1", "Potency": "inconclusive: 16.4 µM [falling, single point]"},
      {"smiles": "COCCNc1nc2ccccc2nc1NS(=O)(=O)c1ccc(C)cc1C", "activity change, negative = inhibition": "inconclusive: -22.3%"},
      {"smiles": "COc1ccc(CNC(=O)CCCN2C(=O)c3ccccc3C2=O)cc1", "activity change, negative = inhibition": "inconclusive: 5.38%"},
      {"smiles": "COc1cccc2c1OCC(C(=O)Nc1nccs1)=C2", "Potency": "inconclusive: 31.6 µM [falling, single point]"},
      {"smiles": "CC(C)(C)c1ccc(-c2cn(-c3ccc(Br)cc3)c3[n+]2CCCS3)cc1", "Potency": "inconclusive: 35.5 µM [falling, single point]"},
      {"smiles": "CC(C)CC(C(=O)OCC(=O)Nc1cccc(Cl)c1)N1C(=O)C2CC=CCC2C1=O", "note": "(configuration not stated)", "activity change, negative = inhibition": "inactive: 0.752%"},
      {"smiles": "C=CCc1ccccc1OCC(CN1CCCCC1)OC(C)=O", "note": "(configuration not stated)", "Potency": "inconclusive: 32.6 µM [falling, single point]"},
      {"smiles": "COC(=O)Cc1c(C)nc2nc(NCc3ccc(Cl)cc3)[nH]n2c1=O", "Potency": "inconclusive: 23.1 µM [falling, partial curve]"},
      {"smiles": "Cc1sc(N/N=C/c2cccnc2)nc1-c1ccccc1", "Potency": "inconclusive: 0.316 µM [rising, partial curve, poor fit]"},
      {"smiles": "O=C(c1ccc2c3c(cccc13)CC2)C1CCCN(C(=O)c2cc[n+]([O-])cc2)C1", "note": "(configuration not stated)", "activity change, negative = inhibition": "inconclusive: 1.66%"},
      {"smiles": "CCNC(=S)N/N=C/c1ccc(OCCOc2ccccc2C)cc1", "activity change, negative = inhibition": "inconclusive: 10.2%"},
      {"smiles": "Cc1noc(/C=C/N(C)C)c1S(=O)(=O)N1CCCC(C(=O)NCc2cccs2)C1", "note": "(configuration not stated)", "Potency": "inconclusive: 5.17 µM [rising, partial curve, poor fit]"},
      {"smiles": "O=C(O)c1ccc(N/N=C/C=C/c2ccccc2)cc1", "activity change, negative = inhibition": "inconclusive: 225%"},
      {"smiles": "CCCNC(=O)NC(=O)COc1ccc2oc3ccccc3c2c1", "activity change, negative = inhibition": "inconclusive: 21%"},
      {"smiles": "O=C(COc1ccccc1)N1CCN(C(=O)c2cccc(F)c2)CC1", "activity change, negative = inhibition": "inconclusive: 2.55%"},
      {"smiles": "CC(C)(C)c1ccccc1OCCCCCn1ccnc1", "activity change, negative = inhibition": "inactive: -3.42%"},
      {"smiles": "CCn1ccnc1CN(C)Cc1cn(-c2ccccc2)nc1-c1ccc(OC)cc1F", "activity change, negative = inhibition": "inconclusive: 4.76%"},
      {"smiles": "CCOc1cc(NS(=O)(=O)c2ccc(Cl)cc2)c(OCC)cc1NC(=O)CC(C)C", "activity change, negative = inhibition": "inconclusive: 17.4%"},
      {"smiles": "Cc1cccc(-n2[nH]c3c4c(ccc3c2=O)C(=O)c2ccccc2C4=O)c1", "activity change, negative = inhibition": "inconclusive: 9.38%"},
      {"smiles": "Cc1cccc(NC(=O)CSc2nnc(Cn3nnc(-c4ccccc4)n3)n2-c2ccccc2)c1", "activity change, negative = inhibition": "inconclusive: -0.396%"},
      {"smiles": "CS(=O)(=O)N(CC(=O)NCc1ccccc1)C1CCCCC1", "activity change, negative = inhibition": "inactive: -19.1%"},
      {"smiles": "Oc1ccc2ccccc2c1CN1CCN(c2ccccc2F)CC1", "activity change, negative = inhibition": "inactive: 6.49%"},
      {"smiles": "Cc1noc(C)c1CSCC(=O)N(C)CC(=O)Nc1ccc(Cl)cc1", "activity change, negative = inhibition": "inactive: -2.21%"},
      {"smiles": "CC(/C=C/c1ccccc1)=N/NC(=O)CNC(=O)c1ccccc1F", "activity change, negative = inhibition": "inconclusive: 14.6%"},
      {"smiles": "Cc1ccc(OCCN2C(=O)c3ccccc3C2=O)cc1", "activity change, negative = inhibition": "inactive: -8.21%"},
      {"smiles": "O=c1cc(-c2ccccc2)nc2cc(-c3ccco3)[nH]n12", "Potency": "inconclusive: 35.5 µM [rising, partial curve]"},
      {"smiles": "CC(=O)OCC(=O)[C@@]1(O)CC[C@H]2[C@@H]3CCC4=CC(=O)CC[C@]4(C)[C@H]3[C@@H](O)C[C@@]21C", "activity change, negative = inhibition": "inconclusive: -21.5% and inconclusive: -27.7%"},
      {"smiles": "CCOc1ccc(C(=O)N(CN2CCCC2=O)c2ccc(C)cc2)cc1", "activity change, negative = inhibition": "inactive: -4.75%"},
      {"smiles": "Oc1c(Cl)cc(Cl)cc1C1=NNC(c2ccc(Cl)cc2)C1", "note": "(configuration not stated)", "activity change, negative = inhibition": "inactive: -15.1%"},
      {"smiles": "CCOC(=O)c1cc(-c2ccc(OC)cc2)n(CCC(=O)NCc2ccccc2OC)c1C", "Potency": "inconclusive: 1.26 µM [falling, full curve]"},
      {"smiles": "CCOc1ccc(N2CC(C(=O)N3CCCc4ccccc43)CC2=O)cc1", "note": "(configuration not stated)", "activity change, negative = inhibition": "inconclusive: -10.2%"},
      {"smiles": "O=C(Nc1ccc2c(c1)OCCO2)c1cc(-c2ccccc2)nc2ccccc12", "activity change, negative = inhibition": "inactive: -10.2%"},
      {"smiles": "N#Cc1c(Nc2ccccc2Cl)s[nH]c1=O", "Potency": "inconclusive: 35.5 µM [rising, single point]"},
      {"smiles": "O=C(CSc1ncnc2ccccc12)NCCCO", "Potency": "inconclusive: 4.11 µM [falling, partial curve, poor fit]"}
    ]}
  ]
}
